PubChem BioAssay AID1259405, NCATS – 2018
Assay: 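Mouse-designed siRNAs used to find CHO productivity engineering targets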 (primary screen). System: Chinese hamster CHO-K1 ovary cells with stable secreted eGFP expression. Reagent: single siRNA against mouse genes, 0.8 pmol siRNA per well (2 µl of 400 nM stock). Timing: 3 days. Measured: 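Percent of the per-plate non-targeting control median for intracellular GFP per well by laser scanning cytometry and for cell viability by ATP luminescence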. Reading the numbers: GFP, % of control: higher = more GFP per well, higher productivity; viability (ATP), % of control: higher = more viable cells (more ATP). Call rule: 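Called active when intracellular GFP, relative to negative control, is at or above 120%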.
Shown is a random part of about 50,000 reagents. About 4,000 of them (8%) count as active. 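Mouse siRNA library applied to hamster cells; one well for each siRNA.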 Reagents against one gene are numbered here.

no.	gene knocked down	siRNA no.	GFP, % of control	viability (ATP), % of control	Outcome
1	Tsks (GeneID 22116)	1	113	76.2	inactive
2	Tsks (GeneID 22116)	2	105	91.4	inactive
3	Nfkbie (GeneID 18037)	1	68.6	94.9	inactive
4	Nfkbie (GeneID 18037)	2	110	41.5	inactive
5	Htr2b (GeneID 15559)	1	66.9	68.2	inactive
6	Htr2b (GeneID 15559)	2	62.7	80.9	inactive
7	Htr2b (GeneID 15559)	3	96.6	49.4	inactive
8	Spag8 (GeneID 433700)	1	123	109	active
9	Spag8 (GeneID 433700)	2	86.3	52.3	inactive
10	Spag8 (GeneID 433700)	3	66	62.9	inactive
11	Muc20 (GeneID 224116)	1	103	86.8	inactive
12	Muc20 (GeneID 224116)	2	38.4	75.3	inactive
13	Muc20 (GeneID 224116)	3	89.2	56.1	inactive
14	Scgb2b27 (GeneID 233099)	1	53.9	77.9	inactive
15	Scgb2b27 (GeneID 233099)	2	60	67	inactive
16	Scgb2b27 (GeneID 233099)	3	91.1	89.9	inactive
17	2410004B18Rik (GeneID 66421)	1	80.6	107	inactive
18	2410004B18Rik (GeneID 66421)	2	110	81.7	inactive
19	2410004B18Rik (GeneID 66421)	3	90	96.8	inactive
20	Pam16 (GeneID 66449)	1	53.6	59.5	inactive
21	Pam16 (GeneID 66449)	2	61.3	43.7	inactive
22	Pam16 (GeneID 66449)	3	61.1	59.7	inactive
23	Tcf4 (GeneID 21413)	1	68.8	66.5	inactive
24	Tcf4 (GeneID 21413)	2	57.1	75.8	inactive
25	Tcf4 (GeneID 21413)	3	94.3	99.4	inactive
26	Gemin6 (GeneID 67242)	1	65.3	49.3	inactive
27	Gemin6 (GeneID 67242)	2	93	61	inactive
28	Gemin6 (GeneID 67242)	3	84	80.2	inactive
29	Or2y16 (GeneID 258459)	1	121	108	active
30	Or2y16 (GeneID 258459)	2	107	59.6	inactive
31	Or2y16 (GeneID 258459)	3	69.8	115	inactive
32	Fam114a1 (GeneID 68303)	1	104	77.6	inactive
33	Fam114a1 (GeneID 68303)	2	77.6	80.4	inactive
34	Fam114a1 (GeneID 68303)	3	103	92.9	inactive
35	Fut2 (GeneID 14344)	1	124	125	active
36	Fut2 (GeneID 14344)	2	89.6	142	inactive
37	Fut2 (GeneID 14344)	3	154	122	active
38	Cldn15 (GeneID 60363)	1	50.9	69.3	inactive
39	Cldn15 (GeneID 60363)	2	85.9	59.4	inactive
40	Cldn15 (GeneID 60363)	3	83.1	116	inactive
41	Tat (GeneID 234724)	1	86.8	102	inactive
42	Tat (GeneID 234724)	2	88.3	75.1	inactive
43	Tat (GeneID 234724)	3	91.2	109	inactive
44	Zkscan2 (GeneID 210162)	1	44.4	74.4	inactive
45	Zkscan2 (GeneID 210162)	2	69.5	66.2	inactive
46	Zkscan2 (GeneID 210162)	3	81.8	117	inactive

Just “viability (ATP), % of control” (10 entries from above):
Tsks (GeneID 22116) #2	91.4
Nfkbie (GeneID 18037) #1	94.9
Nfkbie (GeneID 18037) #2	41.5
Htr2b (GeneID 15559) #1	68.2
Htr2b (GeneID 15559) #2	80.9
Htr2b (GeneID 15559) #3	49.4
Spag8 (GeneID 433700) #1	109
Spag8 (GeneID 433700) #2	52.3
Spag8 (GeneID 433700) #3	62.9
Muc20 (GeneID 224116) #1	86.8

The list goes on:
no.	gene knocked down	siRNA no.	GFP, % of control	viability (ATP), % of control	Outcome
47	Pik3ap1 (GeneID 83490)	1	58.7	75	inactive
48	Pik3ap1 (GeneID 83490)	2	95	61.4	inactive
49	Bltp3b (GeneID 75089)	1	118	81.9	inactive
50	Bltp3b (GeneID 75089)	2	99.2	81	inactive
51	Bltp3b (GeneID 75089)	3	69.1	94.3	inactive
52	Ptpra (GeneID 19262)	1	169	75.5	active
53	Ptpra (GeneID 19262)	2	79.8	108	inactive
54	Ptpra (GeneID 19262)	3	142	93.8	active
55	4931422A03Rik (GeneID 70986)	1	85.7	90.7	inactive
56	4931422A03Rik (GeneID 70986)	2	37.3	25	inactive
57	4931422A03Rik (GeneID 70986)	3	75.4	70.1	inactive
58	Gdap1 (GeneID 14545)	1	69.8	50.8	inactive
59	Gdap1 (GeneID 14545)	2	69.9	71.5	inactive
60	Gdap1 (GeneID 14545)	3	59.7	61.9	inactive
61	Cfhr1 (GeneID 50702)	1	58	78.4	inactive
62	Cfhr1 (GeneID 50702)	2	112	84.5	inactive
63	Cfhr1 (GeneID 50702)	3	59.8	44.6	inactive
64	Ceacam18 (GeneID 72431)	1	48.7	66	inactive
65	Ceacam18 (GeneID 72431)	2	54.1	65.4	inactive
66	Ceacam18 (GeneID 72431)	3	108	120	inactive
67	Nkx3-2 (GeneID 12020)	1	71.9	60.5	inactive
68	Nkx3-2 (GeneID 12020)	2	89.7	88.1	inactive
69	Nkx3-2 (GeneID 12020)	3	112	106	inactive
70	Oasl1 (GeneID 231655)	1	94.3	112	inactive
71	Oasl1 (GeneID 231655)	2	89.3	93.3	inactive
72	Ces2g (GeneID 72361)	1	99.7	124	inactive
73	Ces2g (GeneID 72361)	2	58.2	69.3	inactive
74	Ces2g (GeneID 72361)	3	43.7	57.9	inactive
75	Ftsj1 (GeneID 54632)	1	120	108	active
76	Ftsj1 (GeneID 54632)	2	87.7	83.5	inactive
77	Ftsj1 (GeneID 54632)	3	49.8	65.3	inactive
78	B3galt6 (GeneID 117592)	1	113	84.8	inactive
79	B3galt6 (GeneID 117592)	2	56.3	70.4	inactive
80	B3galt6 (GeneID 117592)	3	92.4	96.9	inactive
81	Eng (GeneID 13805)	1	132	126	active
82	Eng (GeneID 13805)	2	72.3	69.5	inactive
83	Eng (GeneID 13805)	3	31.5	22.1	inactive
84	Tmem198b (GeneID 73827)	1	112	69.9	inactive
85	Tmem198b (GeneID 73827)	2	83.5	98.6	inactive
86	Tmem198b (GeneID 73827)	3	91.7	106	inactive
